From ChEMBL document CHEMBL4043130, “Discovery of a tetrahydroisoquinoline-based HDAC inhibitor with improved plasma stability” (Bioorg Med Chem, 2017)

Assay: Inhibition of HDAC in human HeLa nuclear extract preincubated for 5 mins followed by Boc-Lys (acetyl)-AMC addition measured after 10 mins by fluorescence assay

IC50: 194 nM
SMILES: O=C(CCCCCCC(=O)Nc1ccccc1)NO [VORINOSTAT]
